Laboratory results reported in ChEMBL document CHEMBL5712922, “Synergistic effects of type I PRMT and PARP inhibitors against non-small cell lung cancer cells” (Clin Epigenetics, 2021).

Test system: A549
Test: Antiproliferative against human A549 cells assessed as viable cells pretreated with MS023 for 24 hrs followed by compound addition at 10 uM measured after for 24 hrs relative to control
Conditions: A549, 24 h, read-out: Activity

Which viability at 10 µM does the source give for Cc1ccc(C(=O)NCCCCCC(=O)Nc2ccccc2N)cc1 here?
Its viability at 10 µM is 54.2%.
